According to the supplement of paper PMC11732987, “Enantioselective OTUD7B fragment discovery through chemoproteomics screening and high-throughput optimisation” (Communications Chemistry, 2025):
Some of the results follow. The data scatter; read single values as rough.

Amino acid sequences for entries named in this document (tags omitted). A change or cut given only in a name is not applied to a line headed by its entry. Residues count along the entry.
UniProt P04150, 367-386: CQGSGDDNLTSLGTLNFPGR
UniProt Q9BSD7: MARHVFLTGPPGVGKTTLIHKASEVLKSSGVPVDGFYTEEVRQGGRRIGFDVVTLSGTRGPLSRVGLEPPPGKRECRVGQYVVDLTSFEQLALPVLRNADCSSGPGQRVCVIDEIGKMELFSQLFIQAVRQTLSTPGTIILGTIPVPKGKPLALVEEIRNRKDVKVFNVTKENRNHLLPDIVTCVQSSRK
UniProt Q9Y6R0: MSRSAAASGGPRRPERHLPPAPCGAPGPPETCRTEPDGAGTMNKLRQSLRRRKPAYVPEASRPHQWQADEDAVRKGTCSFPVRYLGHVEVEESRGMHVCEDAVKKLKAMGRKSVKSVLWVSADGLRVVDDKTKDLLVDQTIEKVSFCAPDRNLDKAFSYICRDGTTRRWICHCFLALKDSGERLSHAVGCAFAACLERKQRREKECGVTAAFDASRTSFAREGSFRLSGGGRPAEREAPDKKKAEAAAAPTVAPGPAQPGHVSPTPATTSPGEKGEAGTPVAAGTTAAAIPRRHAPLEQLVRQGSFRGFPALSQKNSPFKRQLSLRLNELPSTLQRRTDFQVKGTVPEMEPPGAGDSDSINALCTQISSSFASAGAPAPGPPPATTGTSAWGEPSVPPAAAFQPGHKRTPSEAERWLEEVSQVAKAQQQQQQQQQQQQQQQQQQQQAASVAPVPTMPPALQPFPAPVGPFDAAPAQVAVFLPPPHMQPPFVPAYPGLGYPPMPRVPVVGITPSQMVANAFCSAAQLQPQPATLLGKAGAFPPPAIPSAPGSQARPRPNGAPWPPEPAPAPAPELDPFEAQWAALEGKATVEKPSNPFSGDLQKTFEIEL
UniProt Q92621: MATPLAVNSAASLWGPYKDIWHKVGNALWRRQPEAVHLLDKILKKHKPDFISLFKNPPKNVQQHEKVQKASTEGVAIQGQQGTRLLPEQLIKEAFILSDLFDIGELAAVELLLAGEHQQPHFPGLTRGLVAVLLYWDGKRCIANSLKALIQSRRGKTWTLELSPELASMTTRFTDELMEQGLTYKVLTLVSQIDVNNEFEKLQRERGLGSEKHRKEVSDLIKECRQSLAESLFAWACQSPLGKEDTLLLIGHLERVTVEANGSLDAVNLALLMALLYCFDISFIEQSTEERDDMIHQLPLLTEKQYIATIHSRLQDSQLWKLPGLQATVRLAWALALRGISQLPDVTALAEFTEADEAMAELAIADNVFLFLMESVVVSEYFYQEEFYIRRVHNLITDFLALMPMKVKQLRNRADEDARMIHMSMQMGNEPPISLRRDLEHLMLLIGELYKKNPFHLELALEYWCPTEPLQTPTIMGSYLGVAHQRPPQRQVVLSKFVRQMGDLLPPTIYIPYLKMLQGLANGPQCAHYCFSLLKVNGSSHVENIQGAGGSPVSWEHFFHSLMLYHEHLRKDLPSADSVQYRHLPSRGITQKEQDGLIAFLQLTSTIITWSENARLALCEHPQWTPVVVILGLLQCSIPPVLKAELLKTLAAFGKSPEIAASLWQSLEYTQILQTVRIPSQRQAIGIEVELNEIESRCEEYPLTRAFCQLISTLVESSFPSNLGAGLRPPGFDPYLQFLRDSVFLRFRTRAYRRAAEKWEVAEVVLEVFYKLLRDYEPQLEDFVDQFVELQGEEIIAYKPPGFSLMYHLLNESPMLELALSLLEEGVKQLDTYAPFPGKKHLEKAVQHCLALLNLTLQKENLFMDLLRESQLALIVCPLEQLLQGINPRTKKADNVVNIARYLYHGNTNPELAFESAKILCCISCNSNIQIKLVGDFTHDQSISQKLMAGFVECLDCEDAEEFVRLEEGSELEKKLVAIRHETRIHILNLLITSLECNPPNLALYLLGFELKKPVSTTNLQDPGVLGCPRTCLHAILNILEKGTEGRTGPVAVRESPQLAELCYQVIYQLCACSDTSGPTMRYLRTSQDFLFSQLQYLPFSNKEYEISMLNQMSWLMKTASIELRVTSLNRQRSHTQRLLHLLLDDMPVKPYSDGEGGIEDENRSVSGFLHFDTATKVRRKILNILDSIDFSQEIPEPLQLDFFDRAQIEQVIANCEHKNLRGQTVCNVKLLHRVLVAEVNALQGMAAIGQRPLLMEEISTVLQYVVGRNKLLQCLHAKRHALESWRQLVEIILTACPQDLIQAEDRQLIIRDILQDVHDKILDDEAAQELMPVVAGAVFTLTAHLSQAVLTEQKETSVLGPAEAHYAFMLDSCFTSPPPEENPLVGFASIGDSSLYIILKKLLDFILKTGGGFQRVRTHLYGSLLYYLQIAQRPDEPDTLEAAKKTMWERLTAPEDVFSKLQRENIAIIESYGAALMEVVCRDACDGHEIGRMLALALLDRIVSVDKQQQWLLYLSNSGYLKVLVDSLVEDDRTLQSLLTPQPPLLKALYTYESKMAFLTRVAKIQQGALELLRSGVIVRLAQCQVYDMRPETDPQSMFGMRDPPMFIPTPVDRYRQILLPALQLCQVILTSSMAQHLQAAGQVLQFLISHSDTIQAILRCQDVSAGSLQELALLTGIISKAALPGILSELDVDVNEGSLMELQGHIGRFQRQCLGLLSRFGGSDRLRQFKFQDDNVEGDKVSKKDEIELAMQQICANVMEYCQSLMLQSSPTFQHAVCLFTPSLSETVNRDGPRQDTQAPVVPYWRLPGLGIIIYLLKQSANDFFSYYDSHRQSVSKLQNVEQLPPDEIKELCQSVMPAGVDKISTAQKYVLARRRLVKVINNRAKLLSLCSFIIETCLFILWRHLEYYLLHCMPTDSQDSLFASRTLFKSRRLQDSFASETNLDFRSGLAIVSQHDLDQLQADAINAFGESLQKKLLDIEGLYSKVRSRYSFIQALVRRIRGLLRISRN
UniProt O75694: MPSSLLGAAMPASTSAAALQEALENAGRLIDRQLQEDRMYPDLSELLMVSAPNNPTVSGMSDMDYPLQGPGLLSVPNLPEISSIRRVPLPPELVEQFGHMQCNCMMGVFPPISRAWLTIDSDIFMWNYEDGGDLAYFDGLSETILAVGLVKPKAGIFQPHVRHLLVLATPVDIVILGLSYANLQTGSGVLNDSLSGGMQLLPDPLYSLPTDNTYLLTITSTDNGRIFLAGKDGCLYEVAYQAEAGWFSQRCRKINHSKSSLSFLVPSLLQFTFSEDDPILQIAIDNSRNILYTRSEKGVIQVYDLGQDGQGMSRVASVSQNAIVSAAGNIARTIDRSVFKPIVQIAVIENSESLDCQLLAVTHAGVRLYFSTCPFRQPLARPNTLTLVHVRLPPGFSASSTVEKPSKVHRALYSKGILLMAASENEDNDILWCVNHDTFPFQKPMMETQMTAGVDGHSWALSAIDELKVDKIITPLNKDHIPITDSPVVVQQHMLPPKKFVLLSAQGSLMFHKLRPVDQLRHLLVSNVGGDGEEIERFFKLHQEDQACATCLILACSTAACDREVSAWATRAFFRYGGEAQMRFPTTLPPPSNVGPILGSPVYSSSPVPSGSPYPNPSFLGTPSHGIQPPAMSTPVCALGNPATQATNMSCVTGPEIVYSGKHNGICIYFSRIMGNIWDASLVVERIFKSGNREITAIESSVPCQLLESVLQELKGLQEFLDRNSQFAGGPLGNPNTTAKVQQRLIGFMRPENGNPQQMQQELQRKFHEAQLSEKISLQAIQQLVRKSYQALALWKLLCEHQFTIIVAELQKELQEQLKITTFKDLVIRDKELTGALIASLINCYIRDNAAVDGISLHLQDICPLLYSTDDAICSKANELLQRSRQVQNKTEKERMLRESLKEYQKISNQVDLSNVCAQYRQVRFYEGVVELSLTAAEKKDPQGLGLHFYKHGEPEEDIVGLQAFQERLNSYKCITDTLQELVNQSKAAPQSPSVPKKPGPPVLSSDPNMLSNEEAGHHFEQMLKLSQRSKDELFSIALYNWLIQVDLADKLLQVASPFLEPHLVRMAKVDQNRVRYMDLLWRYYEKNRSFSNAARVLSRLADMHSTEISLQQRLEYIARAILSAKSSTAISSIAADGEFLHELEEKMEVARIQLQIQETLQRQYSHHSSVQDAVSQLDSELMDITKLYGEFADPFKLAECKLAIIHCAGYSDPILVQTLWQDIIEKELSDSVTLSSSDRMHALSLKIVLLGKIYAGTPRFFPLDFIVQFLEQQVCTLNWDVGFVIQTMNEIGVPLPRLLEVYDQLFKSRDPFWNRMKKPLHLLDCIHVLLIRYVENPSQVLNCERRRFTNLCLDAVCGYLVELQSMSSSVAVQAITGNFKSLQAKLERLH
UniProt P49790: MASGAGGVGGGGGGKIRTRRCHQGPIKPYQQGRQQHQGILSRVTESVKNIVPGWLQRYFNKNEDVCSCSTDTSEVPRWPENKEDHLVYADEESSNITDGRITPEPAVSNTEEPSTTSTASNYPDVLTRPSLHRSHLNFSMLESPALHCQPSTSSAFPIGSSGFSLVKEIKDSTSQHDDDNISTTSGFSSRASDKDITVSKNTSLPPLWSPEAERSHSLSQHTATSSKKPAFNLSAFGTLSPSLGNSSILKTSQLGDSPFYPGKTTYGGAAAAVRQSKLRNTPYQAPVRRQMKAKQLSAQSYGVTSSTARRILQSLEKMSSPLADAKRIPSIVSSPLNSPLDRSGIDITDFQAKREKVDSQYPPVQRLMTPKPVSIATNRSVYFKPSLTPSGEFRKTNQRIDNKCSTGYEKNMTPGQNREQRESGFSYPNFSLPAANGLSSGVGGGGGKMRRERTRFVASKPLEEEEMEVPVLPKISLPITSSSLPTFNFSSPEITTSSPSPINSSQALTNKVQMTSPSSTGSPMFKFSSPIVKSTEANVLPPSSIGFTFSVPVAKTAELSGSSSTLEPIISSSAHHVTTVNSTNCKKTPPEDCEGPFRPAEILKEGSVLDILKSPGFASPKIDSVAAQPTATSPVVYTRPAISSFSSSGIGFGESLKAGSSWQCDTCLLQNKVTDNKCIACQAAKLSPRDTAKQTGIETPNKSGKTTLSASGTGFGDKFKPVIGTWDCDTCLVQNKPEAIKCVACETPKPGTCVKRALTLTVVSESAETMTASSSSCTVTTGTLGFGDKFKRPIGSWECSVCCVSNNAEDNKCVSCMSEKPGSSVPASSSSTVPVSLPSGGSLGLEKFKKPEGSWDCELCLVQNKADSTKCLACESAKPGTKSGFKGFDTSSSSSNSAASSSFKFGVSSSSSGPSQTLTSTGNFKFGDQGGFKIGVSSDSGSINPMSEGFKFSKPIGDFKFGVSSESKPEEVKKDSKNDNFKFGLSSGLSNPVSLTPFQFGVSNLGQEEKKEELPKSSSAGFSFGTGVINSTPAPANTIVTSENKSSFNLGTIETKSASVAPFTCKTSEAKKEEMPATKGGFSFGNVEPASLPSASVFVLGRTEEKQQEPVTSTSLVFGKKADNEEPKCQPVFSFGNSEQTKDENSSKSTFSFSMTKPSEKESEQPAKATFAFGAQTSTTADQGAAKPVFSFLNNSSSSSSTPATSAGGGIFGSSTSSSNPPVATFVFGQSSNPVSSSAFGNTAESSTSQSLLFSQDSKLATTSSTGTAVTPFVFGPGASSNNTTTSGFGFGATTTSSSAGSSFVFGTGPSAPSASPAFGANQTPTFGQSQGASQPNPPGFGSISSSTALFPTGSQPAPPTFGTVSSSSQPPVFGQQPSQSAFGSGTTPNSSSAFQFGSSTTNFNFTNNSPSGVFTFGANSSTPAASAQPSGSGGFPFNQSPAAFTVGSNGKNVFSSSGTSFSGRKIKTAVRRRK
UniProt Q13415: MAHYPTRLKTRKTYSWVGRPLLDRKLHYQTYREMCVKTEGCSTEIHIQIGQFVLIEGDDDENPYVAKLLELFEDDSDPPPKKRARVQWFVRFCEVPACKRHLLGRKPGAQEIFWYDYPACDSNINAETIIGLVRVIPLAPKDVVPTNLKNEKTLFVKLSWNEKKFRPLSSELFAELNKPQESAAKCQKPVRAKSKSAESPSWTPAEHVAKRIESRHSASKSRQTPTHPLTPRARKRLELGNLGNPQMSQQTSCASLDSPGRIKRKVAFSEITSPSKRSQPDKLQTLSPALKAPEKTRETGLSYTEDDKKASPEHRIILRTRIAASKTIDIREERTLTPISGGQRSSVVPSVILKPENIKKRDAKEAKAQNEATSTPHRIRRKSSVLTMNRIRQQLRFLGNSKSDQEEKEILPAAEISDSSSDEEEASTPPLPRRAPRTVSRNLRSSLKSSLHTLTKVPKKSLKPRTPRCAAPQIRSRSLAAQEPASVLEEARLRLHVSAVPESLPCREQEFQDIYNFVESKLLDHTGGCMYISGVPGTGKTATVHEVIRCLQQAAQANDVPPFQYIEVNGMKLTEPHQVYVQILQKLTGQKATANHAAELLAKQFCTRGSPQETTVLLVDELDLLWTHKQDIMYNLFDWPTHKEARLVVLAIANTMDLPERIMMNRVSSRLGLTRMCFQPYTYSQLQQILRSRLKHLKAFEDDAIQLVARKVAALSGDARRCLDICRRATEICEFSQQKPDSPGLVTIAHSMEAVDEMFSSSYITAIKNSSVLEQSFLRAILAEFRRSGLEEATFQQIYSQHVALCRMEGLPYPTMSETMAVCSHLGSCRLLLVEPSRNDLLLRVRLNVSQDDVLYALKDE

The targets below were run with ClCC(=O)N[C@H]1CCCc2ccccc12 (assay: log2 mean competition ratio of IA-DTB cysteine labelling (DMSO/compound) (log2 ratio); higher = stronger cysteine engagement by compound). Details: 200 µM; treatment time: 4 h; cell line lysate: HEK293T.
Procedure: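 IA-DTB competitive cysteine chemoproteomics in HEK293T RIPA lysate. Lysates were treated with compound 29 or 30 at 50 or 200 µM for 4 h, then IA-DTB (500 µM, 1 h), trypsin-digested, NeutrAvidin-enriched and analysed by diaPASEF. Competition ratio = intensity DMSO / intensity compound (n=4 treated, n=64 DMSO); binding: mean log2 CR ≥ 1 and p ≤ 0.05 plus QC filters. Target is the cysteine site.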

Target	log2 mean competition ratio
OPHN1 C24 (UniProt O60890)	0.0069
NR3C1 C367 (UniProt P04150)	0.204
NTPCR C101 (UniProt Q9BSD7)	0.194
NUF2 C377 (UniProt Q9BZD4)	0.116
NTPCR C110 (UniProt Q9BSD7)	0.0427
NUMBL C206 (UniProt Q9Y6R0)	0.0322
NUMB C176 (UniProt P49757)	-0.0959
NUP160 C1166 (UniProt Q12769)	0.0664
OSGEPL1 C390 (UniProt Q9H4B0)	0.183
OTUB2 C51 (UniProt Q96DC9)	-0.0194
NOTCH3 C1747 (UniProt Q9UM47)	0.169
NSD3 C627 (UniProt Q9BZ95)	0.0723
NPEPPS C265 (UniProt P55786)	-0.282
NUBP1 C307 (UniProt P53384)	0.424
NUMBL C99 (UniProt Q9Y6R0)	0.259
NOTCH2 C264 (UniProt Q04721)	0.469
NUP205 C1486 (UniProt Q92621)	-0.0767
NPLOC4 C188	0.0224

Two entries picked at random from the list so far:
Target	log2 mean competition ratio
NOTCH2 C264 (UniProt Q04721)	0.469
NTPCR C110 (UniProt Q9BSD7)	0.0427

Next results.

Target	log2 mean competition ratio
NUP85 C51 (UniProt Q9BW27)	0.24
NUDT5 C76	0.00974
NUP155 C974 (UniProt O75694)	-0.0739
OPA1 C786 (UniProt O60313)	-0.0949
NUDT3 C68 (UniProt O95989)	0.395
NUP188 C976 (UniProt Q5SRE5)	-0.711
OSBPL6 C379 (UniProt Q9BZF3)	-0.313
NUP107 C621 (UniProt P57740)	-0.205
NUP153 C593 (UniProt P49790)	0.205
NUP205 C698 (UniProt Q92621)	0.0571
NUP98 C1068 (UniProt P52948)	0.131
OAS3 C574 (UniProt Q9Y6K5)	-0.0428
NUMA1 C658 (UniProt Q14980)	-0.356
NSRP1 C232 (UniProt Q9H0G5)	0.114
NSRP1 C171 (UniProt Q9H0G5)	0.0211
NSUN2 C93 (UniProt Q08J23)	-0.204
NPEPPS C339 (UniProt P55786)	0.234
ORC1 C529 (UniProt Q13415)	0.337
